Measurements as given in publication PMC3961380, “Activation of 2′ 5′-Oligoadenylate Synthetase by Stem Loops at the 5′-End of the West Nile Virus Genome”.
These are yes or no findings as the source states them, for the method shown.

Biological target: recombinant human OAS1 p42 isoform (transcript variant 2) (human) (UniProt P00973)
Experiment: AUC + other: dynamic light scattering; sedimentation velocity at 0.4, 0.6 and 0.8 mg/mL OAS1 in 50 mM Tris, 100 mM NaCl, 1 mM DTT (pH 7.5), 20.0 °C, 45,000 rpm; DLS at 3 concentrations in the same buffer, 20.0 °C; molecular weight from s and rH by the Svedberg equation; both purified

B1: recombinant human OAS1 p42 isoform (transcript variant 2) (enzyme, UniProt P00973-2 1-364)
chain: MMDLRNTPAKSLDKFIEDYLLPDTCFRMQINHAIDIICGFLKERCFRGSSYPVCVSKVVKGGSSGKGTTLRGRSDADLVVFLSPLTTFQDQLNRRGEFIQEIRRQLEACQRERAFSVKFEVQAPRWGNPRALSFVLSSLQLGEGVEFDVLPAFDALGQLTGGYKPNPQIYVKLIEECTDLQKEGEFSTCFTELQRDFLKQRPTKLKSLIRLVKHWYQNCKKKLGKLPPQYALELLTVYAWERGSMKTHFNTAQGFRTVLELVINYQQLCIYWTKYYDFKNPIIEKYLRRQLTKPRPVILDPADPTGNLGGGDPKGWRQLAQEAEAWLNYPCFKNWDGSPVSSWILLVRPPASSLPFIPAPLHEA
  binding: no binding (tested: 0.4, 0.6 and 0.8 mg/mL)
